Measurements: doi:10.1101/2020.03.05.978163
Results are given in words; binding and its absence hold for the method and conditions named. Binding seen in cells or lysates may run through a third protein. Some binding calls cover weakened binding; strength is not graded here. Sequences can lack the tags named with a protein.

Sequences of proteins named here, by UniProt entry; tags and fusion partners are left off.
UniProt Q9W420: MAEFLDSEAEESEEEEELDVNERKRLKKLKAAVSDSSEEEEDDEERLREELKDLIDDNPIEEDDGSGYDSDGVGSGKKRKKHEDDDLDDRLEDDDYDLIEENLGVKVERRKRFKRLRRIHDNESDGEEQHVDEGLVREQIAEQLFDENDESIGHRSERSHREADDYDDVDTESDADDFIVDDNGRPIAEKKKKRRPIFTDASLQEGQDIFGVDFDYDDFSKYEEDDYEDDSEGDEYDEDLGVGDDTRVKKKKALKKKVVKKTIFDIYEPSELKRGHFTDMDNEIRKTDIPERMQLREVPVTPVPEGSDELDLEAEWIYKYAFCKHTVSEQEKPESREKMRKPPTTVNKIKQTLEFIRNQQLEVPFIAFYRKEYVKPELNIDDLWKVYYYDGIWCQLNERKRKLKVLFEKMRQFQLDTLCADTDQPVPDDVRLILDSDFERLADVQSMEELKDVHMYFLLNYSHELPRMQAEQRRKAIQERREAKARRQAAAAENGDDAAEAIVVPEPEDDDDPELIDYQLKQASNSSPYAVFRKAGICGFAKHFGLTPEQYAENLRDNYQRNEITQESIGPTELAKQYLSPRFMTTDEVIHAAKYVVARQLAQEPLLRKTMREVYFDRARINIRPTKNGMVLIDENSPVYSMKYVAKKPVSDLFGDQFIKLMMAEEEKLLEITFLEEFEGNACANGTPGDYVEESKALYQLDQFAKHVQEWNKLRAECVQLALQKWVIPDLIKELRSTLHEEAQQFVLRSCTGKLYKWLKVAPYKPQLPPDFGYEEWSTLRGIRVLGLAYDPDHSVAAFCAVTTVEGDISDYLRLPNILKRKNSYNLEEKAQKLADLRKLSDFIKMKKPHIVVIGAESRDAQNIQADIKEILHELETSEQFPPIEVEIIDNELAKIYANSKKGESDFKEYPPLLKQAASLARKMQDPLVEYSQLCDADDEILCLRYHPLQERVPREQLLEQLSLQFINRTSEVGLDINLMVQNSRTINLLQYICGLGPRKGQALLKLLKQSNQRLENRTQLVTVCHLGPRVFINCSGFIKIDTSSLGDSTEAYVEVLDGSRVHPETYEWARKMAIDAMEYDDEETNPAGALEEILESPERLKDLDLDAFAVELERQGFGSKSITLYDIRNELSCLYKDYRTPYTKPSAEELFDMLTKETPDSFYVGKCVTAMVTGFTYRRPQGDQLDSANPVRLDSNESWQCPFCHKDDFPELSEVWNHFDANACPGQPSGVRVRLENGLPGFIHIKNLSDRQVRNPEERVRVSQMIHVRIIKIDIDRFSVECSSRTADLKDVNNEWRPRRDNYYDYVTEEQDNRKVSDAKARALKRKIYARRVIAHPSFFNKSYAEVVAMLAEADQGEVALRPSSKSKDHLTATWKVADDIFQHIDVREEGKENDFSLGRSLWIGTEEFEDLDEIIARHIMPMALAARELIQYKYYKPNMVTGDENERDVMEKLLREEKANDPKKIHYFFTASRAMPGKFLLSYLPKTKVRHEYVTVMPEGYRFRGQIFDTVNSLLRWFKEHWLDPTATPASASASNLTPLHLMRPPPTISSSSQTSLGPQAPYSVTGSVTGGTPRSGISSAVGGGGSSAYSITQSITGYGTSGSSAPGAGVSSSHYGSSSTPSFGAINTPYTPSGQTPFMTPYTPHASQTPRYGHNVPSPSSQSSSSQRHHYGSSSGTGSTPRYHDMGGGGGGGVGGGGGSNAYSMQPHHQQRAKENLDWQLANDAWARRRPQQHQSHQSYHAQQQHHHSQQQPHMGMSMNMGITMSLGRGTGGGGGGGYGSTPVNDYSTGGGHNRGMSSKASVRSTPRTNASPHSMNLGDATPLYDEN

Molecular target: Spt6 (Drosophila) (UniProt Q9W420)
Assay: co-IP

| binding | Binder |
| --- | --- |
| binds | HA-Fl(2)d (protein, UniProt Q9Y091 1-536) MSVAAMTMDDQRPCMNSYDKMPPTKYEQNLNILNSSQNSGATGGPASPTPSGLEDHHHHHHPHPHHHHHQEQQQQQQQQQHLQQQQQQQQQQHAAAVAEAVAAAEQRQRLLEDEIENLKLEQVRMAQQCADAQRREKILMRRLANKEQEFQDYVSQIAEYKAQQAPTALALRTALLDPAVNLLFERLKKELKATKAKLEETQNELSAWKFTPDSNTGKRLMAKCRLLYQENEELGKMTSNGRLAKLETELAMQKSFSEEVKKSQSELDDFLQELDEDVEGMQSTILFLQQELKTTRDRIQTLEKENAQLKQAIKDEVVAPAAATNGGTNTTINKLETIHEDACMANNPTNPDCYNGNTNNEQIAAVPQIPLSDDGSNMNGNAARLARKRNYQEEEALPTVVVVPTPTPVGNNVQEAPPIREVTAPRTLPPKKSKLRGITTRRNSQLEEDHQPVTTPVAVPMIVDNAVAGMASEEAAAAAAAVNNSNTGIIPETGVQVGVPVEGGDPGAPAAPGRILTRRRSVRMQQNGSGAVDYST |
| binds | HA-Ythdc1 (protein, UniProt Q9VZQ1 1-721) MPRAARKQTLPMREMADLDAVHLGLDENEADIAEELQDFEFNTRSEASESNGGDSSDSEPSISSVSTATSSLAGSSKRKTKKPAKQSPQPAVETKSSKSSAKNKAKREPTPEELNGGKKKKRTDSGTKKTTSSEASDKVKSKSPDTEDRQPSAKKSRTKIPSNANDSAGHKSDLSEAEDEKPSLPTLESDSESSDSDSGTQHKRNGGNGGGNGRGKPSSKSSTPEKDSVGGGTHSHSQKGYDYMTKLNYLFRDTRFFLIKSNNSDNVQLSKNKSVWATLPQNDANLNQAFKEARNVLLIFSVNESGKFAGFARMAAPSRRDIPQVAWVLPPSISPKALGGVIELDWICRKELSFNATLHLHNTWNEGKPVKIGRDGQEIEPKIGGELCRLFPEDEQIELTPILKKSKETARVMREKGIHVIYKPPRSLSSRGHGGGGRGGGRGSNHDHLGPMRHKRSYHGAPHHRPYRHHHGMGLPPGGGFKRSGSPYRQMGGAAGAPPGGPGDMAMPSWERYMSSAAAAEAYVADYMRNMHGQLPPLPFVPPFAQLPIPGAGAGAAGALPPGAAAAMYEQLPPPVRYYDGPGAPPLPDYPPPQRPPPPGFDKAPSYEEFAAWKNAGLPTVPPPGFPVYGGAANGGSNGAGGLAAAQAAAAGGGMGAGGGSGGGMGGPGGYRNRDGNNGSAGGRRREYGNRSGGGGSSRDSRPFRERGGGGGQRSYRDNRR |
